# Data from paper PMC6113625.
# These are yes or no findings as the source states them, for the method shown. Binding seen in cells or lysates may run through a third protein. Tags and fused reporters may be left off the sequences shown.
# Assays:
# [1] = molecular target: B. pertussis ACD phosphorylated by protein kinase A in vitro (Bordetella pertussis Tohama I) (UniProt P0DKX7); experiment: co-IP; reaction solutions of ACD (1 nM), with or without PKA phosphorylation, preincubated with 48 µg of the FLAG-14-3-3γ-containing E. coli fraction; immunoprecipitated with an anti-ACD antibody, immunoblotted with an anti-14-3-3 antibody and anti-CyaA antibody (3D1); only the target purified
# [2] = molecular target: recombinant adenylate cyclase domain peptide of B. pertussis CyaA (B. pertussis ACD), nonphosphorylated (Bordetella pertussis Tohama I) (UniProt P0DKX7); experiment: as above
binder,measurement,setting,value
"FLAG-14-3-3γ expressed in E. coli (protein, UniProt P61981 1-247) MVDREQLVQKARLAEQAERYDDMAAAMKNVTELNEPLSNEERNLLSVAYKNVVGARRSSWRVISSIEQKTSADGNEKKIEMVRAYREKIEKELEAVCQDVLSLLDNYLIKNCSETQYESKVFYLKMKGDYYRYLAEVATGEKRATVVESSEKAYSEAHEISKEHMQPTHPIRLGLALNYSVFYYEIQNAPEQACHLAKTAFDDAIAELDTLNEDSYKDSTLIMQLLRDNLTLWTSDQQDDDGGEGNN",binding,[1],no binding
same,binding,[2],no binding
